# Source: PubChem BioAssay AID190 (DTP/NCI, 2004)
# The list shows only some results of the screen, not a fair sample: it gathers tests that were run many times, whatever their T/C, doses with no T/C, and many T/C values between a quarter and a half above the control. Other doses and runs of a compound stand elsewhere. T/C is the treated group as % of the vehicle group. Some doses have a count of surviving animals in place of a T/C: the source files T/C as zero there, which appears to mark a toxic dose or a test without result, not a measured value. Some doses without a T/C left all or most animals alive at the check, yet need not have been tolerated: survival well below the control is almost never listed, so the zero probably covers shortened survival too. Counts of survivors are from the toxicity check (mostly the fifth day) where no day follows; animals may have died later. Schedules are NCI's codes, taken here to give the interval after Q, in days (D) or hours (H), and the number of doses after X. Additions like (4×) give the number of equal values in this list. Some entries were tested several times; their values stand side by side, smallest first. Where survival is the endpoint, this PubChem deposit counts one and a half times the control or more as active, and values a quarter to a half above the control carry no call in these data; other NCI protocols may use other cut-offs. Some T/C values are followed by the survivors on the day toxicity was checked, most often the fifth; without a count, all were alive then.
# Tested on: AKR/Lw mice, AKR lymphoma ip, median survival T/C
# Test: NCI In Vivo Anticancer Drug Screen. Data for tumor model Lymphoma AKR (Transplanted) (intraperitoneal) in AKR/Lw mice
# Details: T/C endpoint: median survival time, higher T/C = longer survival
# Method: The antitumor activity of compounds was measured in mice bearing transplantable tumors. Survival or tumor size were measured and the results are expressed as the measurement made in the treated group (T) divided by the measurement made in the vehicle treated control group (C). The tumor model used in this assay is Lymphoma AKR (Transplanted) (intraperitoneal) in AKR/Lw mice
# [1] = dose: 25.0 mg/kg/injection, schedule: Q01DX009 (ip), vehicle: saline
# [2] = dose: 40.0 mg/kg/injection, schedule: Q04DX003 (ip), vehicle: Klucel (hydroxypropylcellulose) (HPC)
# [3] = dose: 50.0 mg/kg/injection, schedule: Q01DX009 (ip), vehicle: saline
# [4] = dose: 50.0 mg/kg/injection, schedule: Q04DX003 (ip), vehicle: saline
# [5] = dose: 75.0 mg/kg/injection, schedule: Q04DX003 (ip), vehicle: saline
# [6] = dose: 100.0 mg/kg/injection, schedule: Q01DX009 (ip), vehicle: saline
# [7] = dose: 200.0 mg/kg/injection, schedule: Q01DX001 (ip), vehicle: saline
# [8] = dose: 400.0 mg/kg/injection, schedule: Q01DX001 (ip), vehicle: saline
# [9] = dose: 200.0 mg/kg/injection, schedule: Q04DX003 (ip), vehicle: other
structure (smiles),measurement,setting,value
Cc1c2ccncc2c(C)c2c1[nH]c1ccccc12,T/C,"dose: 2.5 mg/kg/injection, schedule: Q01DX009 (ip), vehicle: Klucel (hydroxypropylcellulose) (HPC)","93 [7 of 10 alive], 102, 108, 126 % of control"
same,T/C,"dose: 2.5 mg/kg/injection, schedule: Q01DX009 (ip), vehicle: saline",141 % of control
same,T/C,"dose: 5.0 mg/kg/injection, schedule: Q01DX009 (ip), vehicle: Klucel (hydroxypropylcellulose) (HPC)","100 [9 of 10 alive], 113, 123, 126 % of control"
same,T/C,"dose: 6.0 mg/kg/injection, schedule: Q01DX009 (ip), vehicle: saline, evaluated on day 45",135 % of control
same,T/C,"dose: 6.0 mg/kg/injection, schedule: Q01DX009 (ip), vehicle: saline, evaluated on day 60",126 % of control
same,T/C,"dose: 10.0 mg/kg/injection, schedule: Q01DX009 (ip), vehicle: Klucel (hydroxypropylcellulose) (HPC)","108, 113 [9 of 10 alive], 118, 147 % of control"
same,survivor count,"dose: 10.0 mg/kg/injection, schedule: Q04DX003 (ip), vehicle: Klucel (hydroxypropylcellulose) (HPC)",5 of 10
same,T/C,"dose: 12.0 mg/kg/injection, schedule: Q01DX009 (ip), vehicle: saline",129 % of control
same,T/C,"dose: 12.5 mg/kg/injection, schedule: Q01DX005 (ip), vehicle: other",125 and 145 % of control
same,survivor count,"dose: 20.0 mg/kg/injection, schedule: Q01DX009 (ip), vehicle: Klucel (hydroxypropylcellulose) (HPC)",10 of 10
same,T/C,[1],86 [9 of 10 alive] and 98 % of control [9 of 10 alive]
same,survivor count,[1],10 of 10
same,survivor count,"dose: 35.0 mg/kg/injection, schedule: Q04DX003 (ip), vehicle: Klucel (hydroxypropylcellulose) (HPC)",10 of 10
same,T/C,"dose: 37.5 mg/kg/injection, schedule: Q01DX001 (ip), vehicle: saline",132 % of control
same,survivor count,"dose: 37.5 mg/kg/injection, schedule: Q04DX003 (ip), vehicle: Klucel (hydroxypropylcellulose) (HPC)",10 of 10
same,T/C,"dose: 37.5 mg/kg/injection, schedule: Q04DX003 (ip), vehicle: saline, evaluated on day 45",138 % of control
same,T/C,"dose: 37.5 mg/kg/injection, schedule: Q04DX003 (ip), vehicle: saline, evaluated on day 60",88 and 119 % of control [9 of 10 alive]
same,survivor count,"dose: 37.5 mg/kg/injection, schedule: Q04DX003 (ip), vehicle: saline",9 of 10
same,T/C,[2],127 % of control
same,survivor count,[2],4 of 10 and 10 of 10
same,survivor count,"dose: 45.0 mg/kg/injection, schedule: Q04DX003 (ip), vehicle: Klucel (hydroxypropylcellulose) (HPC)",10 of 10
same,T/C,"dose: 50.0 mg/kg/injection, schedule: Q01DX001 (ip), vehicle: saline","107, 113 [9 of 10 alive], 116, 122, 133, 134 % of control"
same,survivor count,"dose: 50.0 mg/kg/injection, schedule: Q01DX005 (ip), vehicle: other",10 of 10
same,survivor count,[3],9 of 10 and 10 of 10 (2×)
same,survivor count,"dose: 50.0 mg/kg/injection, schedule: Q04DX003 (ip), vehicle: Klucel (hydroxypropylcellulose) (HPC)",10 of 10
same,T/C,[4],127 % of control [9 of 10 alive]
same,T/C,"dose: 75.0 mg/kg/injection, schedule: Q01DX001 (ip), vehicle: saline",134 % of control
same,survivor count,"dose: 75.0 mg/kg/injection, schedule: Q04DX003 (ip), vehicle: Klucel (hydroxypropylcellulose) (HPC)",10 of 10
same,T/C,[5],91 and 125 % of control
same,survivor count,[5],10 of 10 (2×)
same,survivor count,"dose: 80.0 mg/kg/injection, schedule: Q04DX003 (ip), vehicle: Klucel (hydroxypropylcellulose) (HPC)",5 of 10
same,T/C,"dose: 100.0 mg/kg/injection, schedule: Q01DX001 (ip), vehicle: saline","118 [9 of 10 alive], 121, 131, 137 [9 of 10 alive], 138 % of control (2×)"
same,survivor count,"dose: 100.0 mg/kg/injection, schedule: Q01DX005 (ip), vehicle: other",10 of 10
same,survivor count,"dose: 100.0 mg/kg/injection, schedule: Q01DX005 (ip), vehicle: water",10 of 10
same,survivor count,[6],10 of 10
same,survivor count,"dose: 150.0 mg/kg/injection, schedule: Q04DX003 (ip), vehicle: saline","8 of 10, 9 of 10, 10 of 10"
same,T/C,[7],123 and 153 % of control [9 of 10 alive]
same,survivor count,[7],"8 of 10, 9 of 10, 10 of 10"
same,survivor count,"dose: 200.0 mg/kg/injection, schedule: Q01DX005 (ip), vehicle: water",10 of 10
same,survivor count,"dose: 200.0 mg/kg/injection, schedule: Q04DX003 (ip), vehicle: Klucel (hydroxypropylcellulose) (HPC)",10 of 10
same,survivor count,"dose: 200.0 mg/kg/injection, schedule: Q04DX003 (ip), vehicle: saline",9 of 10
same,survivor count,"dose: 200.0 mg/kg/injection, schedule: Q04DX003 (ip), vehicle: water",10 of 10
same,survivor count,"dose: 300.0 mg/kg/injection, schedule: Q04DX003 (ip), vehicle: saline",6 of 10 and 9 of 10
same,survivor count,[8],6 of 10 and 9 of 10
same,survivor count,"dose: 400.0 mg/kg/injection, schedule: Q04DX003 (ip), vehicle: water",10 of 10
O=C1CCSCCN1,survivor count,[8],10 of 10
Nc1nc(=S)c2ncn(C3CC(O)C(CO)O3)c2[nH]1 (stereo not given),T/C,"dose: 25.0 mg/kg/injection, schedule: Q01DX009 (ip), vehicle: saline, evaluated on day 45",97 % of control
same,T/C,"dose: 25.0 mg/kg/injection, schedule: Q01DX009 (ip), vehicle: saline, evaluated on day 60","87, 92, 100 % of control"
same,T/C,"dose: 50.0 mg/kg/injection, schedule: Q01DX009 (ip), vehicle: saline, evaluated on day 45",107 % of control
same,T/C,"dose: 50.0 mg/kg/injection, schedule: Q01DX009 (ip), vehicle: saline, evaluated on day 60",103 and 116 % of control
same,survivor count,[3],10 of 10
same,survivor count,[4],7 of 10
same,T/C,"dose: 100.0 mg/kg/injection, schedule: Q01DX009 (ip), vehicle: saline, evaluated on day 45",107 % of control
same,T/C,"dose: 100.0 mg/kg/injection, schedule: Q01DX009 (ip), vehicle: saline, evaluated on day 60","101, 104 [9 of 10 alive], 111 % of control [9 of 10 alive]"
same,survivor count,[6],10 of 10
same,T/C,"dose: 100.0 mg/kg/injection, schedule: Q04DX003 (ip), vehicle: saline, evaluated on day 45",110 % of control
same,T/C,"dose: 100.0 mg/kg/injection, schedule: Q04DX003 (ip), vehicle: saline, evaluated on day 60","87, 114, 122 % of control"
same,T/C,[9],130 % of control
same,survivor count,[9],9 of 10
same,T/C,"dose: 400.0 mg/kg/injection, schedule: Q01DX001 (ip), vehicle: saline, evaluated on day 45",105 % of control
same,T/C,"dose: 400.0 mg/kg/injection, schedule: Q01DX001 (ip), vehicle: saline, evaluated on day 60","92, 100 [8 of 10 alive], 110 % of control"
same,survivor count,"dose: 400.0 mg/kg/injection, schedule: Q01DX009 (ip), vehicle: saline",10 of 10
same,survivor count,"dose: 400.0 mg/kg/injection, schedule: Q04DX003 (ip), vehicle: other",8 of 10
same,T/C,"dose: 400.0 mg/kg/injection, schedule: Q04DX003 (ip), vehicle: saline",136 % of control
N=Cc1c(O)[nH]c(=O)[nH]c1=O,survivor count,"dose: 400.0 mg/kg/injection, schedule: Q04DX003 (ip), vehicle: Klucel (hydroxypropylcellulose) (HPC)",10 of 10
